Experimental findings from the supplement of paper PMC7858590 are described below.

± gives the standard deviation of the averaged measurements. Over roughly 3,800 compounds, “cell shape (eccentricity) Z-score vs DMSO control” has its median near 1.1; the lowest 2% begin near -4.7. The list shows a part of the results.

The test system of this test is human monocyte-derived macrophages (M0). As to the kind of experiment: cell shape (eccentricity) Z-score vs DMSO control; higher = more elongated, M2-like morphology. To be noted: 20 µM; 24 h; macrophage state: M0 (M-CSF).
For the compound `CCN1CCCC1CNC(=O)c1cc(S(N)(=O)=O)ccc1OC` (stereo not drawn), the “cell shape (Z-score)” value amounted to 3.86. With `Cc1ccc(C(=O)NCCCCCC(=O)Nc2ccc(F)cc2N)cc1`, the “cell shape (Z-score)” value amounted to 1.52.

For the compound `C=C[C@@]1(C)C[C@H](O)[C@@H]2[C@@H](OC(O)[C@H]2C)[C@@H]1C(=C)C` (stereo partly drawn), the “cell shape (Z-score)” value is -1.32. The figure for `CC(=O)Cc1cc(=O)c2c(C)cc(O)c(C3OC(CO)C(O)C(O)C3O)c2o1` (stereo not drawn) is -4.07. To `Cn1c(=O)[nH]c2ncn(C)c2c1=O` belongs 0.0791; to `COc1c(O[C@@H]2O[C@H](CO)[C@@H](O)[C@H](O)[C@H]2O)cc2oc(-c3ccc(O)cc3)cc(=O)c2c1O`, -0.116.

On to `CC[C@H](NC(=O)[C@H](C)NC)C(=O)N1C[C@@H](O)C[C@H]1Cc1cc(F)cc2[nH]c(-c3[nH]c4cc(F)ccc4c3C[C@@H]3C[C@H](O)CN3C(=O)[C@H](CC)NC(=O)[C@H](C)NC)cc12`, for which the “cell shape (Z-score)” value was determined as 0.663. For the compound `OC(Cn1cncn1)(Cn1cncn1)c1ccc(F)cc1F`, the “cell shape (Z-score)” value amounted to 2.84.

As to `Cc1c[nH]c(-c2cnc(NCCNc3ccc(C#N)cn3)nc2-c2ccc(Cl)cc2Cl)n1`, the “cell shape (Z-score)” value is -4.52.

On to `Oc1cc2c(c(Cl)c1O)CCNC[C@@H]2c1ccccc1`, for which the “cell shape (Z-score)” value is -0.12. The figure for `CN1CCC(=C2c3ccccc3C=Cc3ccccc32)CC1` is 0.0396. For `CCCCCCn1c(=O)c2c(ncn2C)n(C)c1=O`, the “cell shape (Z-score)” value was determined as 3.63. As to `CCOC(=O)C1Cc2ccccc2CN1C(=O)c1ccc(SC)s1` (stereo not drawn), the “cell shape (Z-score)” value was found to be 0.853.

As to `CCn1nc(C(=O)O)c(=O)c2cc3c(cc21)OCO3`, the “cell shape (Z-score)” value came to 1.59. The figure for `C[C@H](O)c1nc2ccccc2c(=O)[nH]1` is 0.101; for `O=c1c(O)c(-c2ccc(O)cc2)oc2cc(OC3O[C@H](CO)[C@@H](O)[C@H](O)[C@H]3O)cc(O)c12` (stereo partly drawn) it is 0.856. To `CC(C)(C)c1cnc(CSc2cnc(NC(=O)C3CCNCC3)s2)o1` belongs 3.31; to `CC(=O)Oc1ccccc1C(=O)Oc1ccccc1C(=O)O`, 4.32.

For the compound `Cc1ccc(C)c(OCCCC(C)(C)C(=O)O)c1`, the “cell shape (Z-score)” value was 1.98.

Take `CC(=O)C(C#N)C(=O)Nc1cc(Br)ccc1Br` (stereo not drawn): the “cell shape (Z-score)” value is -5.16. The figure for `CC1CC(OC(=O)c2ccccc2O)CC(C)(C)C1` (stereo not drawn) is 2.74; for `CCCCN(CCCC)CCCOC(=O)c1ccc(N)cc1` it is -0.4.

Take `CC(C)CC(NC(=O)OCC1c2ccccc2-c2ccccc21)C(=O)O` (stereo not drawn): the “cell shape (Z-score)” value worked out at 1.09.

As for `CC(C)=CCc1c(O[C@@H]2O[C@H](CO)[C@@H](O)[C@H](O)[C@H]2O)cc(O)c2c1O[C@H](c1ccc(O)cc1)CC2=O`, the “cell shape (Z-score)” value came to 0.356.

In the case of `COc1nc(N)nc2c1ncn2[C@@H]1O[C@H](CO)[C@@H](O)[C@@H]1O`, the “cell shape (Z-score)” value came out at 0.62 ± 1.5. The figure for `CC(C)(Oc1ccc(C2CC2(Cl)Cl)cc1)C(=O)O` (stereo not drawn) is 1.13. The figure for `COc1ccc(-c2cc(=O)c3c(O)c(OC)c(O[C@H]4O[C@H](CO[C@@H]5O[C@@H](C)[C@H](O)[C@@H](O)[C@H]5O)[C@@H](O)[C@H](O)[C@H]4O)cc3o2)cc1` is 0.599.

Take `COC(=O)C[C@@H]1C(C(=O)O)=CO[C@@H](O[C@@H]2O[C@H](CO)[C@@H](O)[C@H](O)[C@H]2O)/C1=C\COC(=O)/C=C/c1ccccc1`: the “cell shape (Z-score)” value was -3.68. For the compound `Nc1ncnc2c1c(COc1cccc(Cl)c1)nn2C1CCOCC1`, the “cell shape (Z-score)” value was determined as 3.86. The figure for `C=C[C@]1(C)C[C@H](O)[C@H]2C(=C)C(=O)O[C@@H]2[C@H]1C(=C)CO` is -1.59; for `Cc1cccc(Nc2ccccc2C(=O)O)c1C` it is 4.38; for `CC(C)CC#Cc1ccc2c(c1)O[C@@H](CN(C)C(=O)c1cnccn1)[C@H](C)CN([C@H](C)CO)S2(=O)=O` it is 2.61. As for `C[C@@H]1O[C@@H](O[C@H]2[C@H](O)[C@@H](O)[C@H](O[C@H]3[C@H](O[C@H]4CC[C@@]5(C)C(=CC[C@H]6C7C[C@@H]8O[C@]9(CC[C@@](C)(CO[C@@H]%10O[C@H](CO)[C@@H](O)[C@H](O)[C@H]%10O)O9)[C@H](C)C8[C@@]7(C)CCC65)C4)O[C@H](CO)[C@@H](O)[C@@H]3O)O[C@@H]2CO)[C@H](O)[C@H](O)[C@H]1O` (stereo partly drawn), the “cell shape (Z-score)” value was -1.72. The figure for `COc1cc2c(Nc3ccc(NC(=O)c4ccccc4)cc3)ncnc2cc1OCCCN1CCOCC1` is -0.0726. To `Cc1cc(C)c(S(=O)(=O)Nc2ccccc2C(F)(F)F)c(C)c1` belongs 1.77. The figure for `N[C@H](CSCCB(O)O)C(=O)O` is 4.09; for `C(=C\N1CCN(C(c2ccccc2)c2ccccc2)CC1)/Cc1ccccc1` it is 3.09. Consider `O=C1N=C(NS(=O)(=O)c2cccc3ccccc23)S/C1=C\c1ccc(Br)cc1`, for which the “cell shape (Z-score)” value was -0.239. On to `O=C(CCc1ccc(O)cc1)c1ccc(O[C@@H]2O[C@H](CO)[C@H](O)[C@H](O)[C@H]2O)cc1O`, for which the “cell shape (Z-score)” value stood at 2.57. To `CC(=O)OCC1=CCCC2[C@@]1(C)CC[C@@H](C)[C@]2(C)CCC(C)CC(=O)O` (stereo partly drawn) belongs -1.11. The figure for `C/C=C/C=C/C(=O)O[C@@H]1C=C(CO)[C@](O)(CO)[C@@]2(C)CCCC(C)(C)[C@H]12` is 0.307; for `CC(C)Oc1cccc(-n2c(CCc3c[nH]c4ccc(Br)cc34)nc3ccccc3c2=O)c1` it is 3.94; for `COc1ccc2c(c1)c(=O)oc1cc(O)ccc12` it is 2.68. On to `C[C@H]1c2cccc(O)c2C(=O)C2C(=O)[C@]3(O)C(=O)C(C(N)=O)C(=O)[C@@H](N(C)C)[C@@H]3[C@@H](O)[C@@H]21` (stereo partly drawn), for which the “cell shape (Z-score)” value is -0.502.

As to `O=C(Nc1cccc(-c2cn3ccccc3n2)c1)c1cc2cccc(O)c2oc1=O`, the “cell shape (Z-score)” value is 0.05. To `COC1OC(=O)C(CCC2(C)C(C)CCC3(C)C2CC(O)C(O)C32CO2)C1O` (stereo not drawn) belongs -2.34; to `CCCCC/C=C\C/C=C\CCCCCCCC(=O)OC(CO)CO`, 1.86; to `OCCOCCN1CCN(C2=Nc3ccccc3Sc3ccccc32)CC1`, 2.19. The figure for `CN1[C@@H](CC(=O)c2ccccc2)CCC[C@H]1C[C@H](O)c1ccccc1` is -3.79.

For `CN1C(CCl)Nc2cc(Cl)c(S(N)(=O)=O)cc2S1(=O)=O` (stereo not drawn), the “cell shape (Z-score)” value amounted to 0.386. To `Fc1ccc([C@@H]2CCNC[C@H]2COc2ccc3c(c2)OCO3)cc1` belongs 1.33.

With `C/C(=C\CC[C@H](CO)[C@@H]1CC[C@]2(C)C3=C(CC[C@@]12C)[C@@]1(C)CCC(=O)C(C)(C)C1CC3)C(=O)O` (stereo partly drawn), the “cell shape (Z-score)” value stood at 0.863 ± 2.3. In the case of `CC1(C)CC(c2nc(-c3ccc4ccc(-c5ccccc5)nc4c3)c3c(N)nccn23)C1`, the “cell shape (Z-score)” value is 6.24. The figure for `CS(=O)(=O)Nc1ccc([N+](=O)[O-])cc1Oc1ccccc1` is 3.89; for `O=C(O)CCC=CCC1COC(c2ccccc2Cl)OC1c1ccccc1O` (stereo not drawn) it is 2.22. To `CCCCC/C=C/C=C/C(O)CCCCCCCC(=O)O` (stereo not drawn) belongs 0.726; to `COc1cc(C2CC(=O)c3c(O)cc(O)cc3O2)ccc1O` (stereo not drawn), 2.17 ± 1.8; to `CC1OC(Oc2cc(O)c(C3OC(C)C(O)C(O)C3O)c3oc(-c4ccc(O)cc4)cc(=O)c23)C(O)C(O)C1O` (stereo not drawn), 1.37. In the case of `CC(=O)NC(C(=O)O[C@H]1CCC(C)(C)[C@@H]2CC=C3C(=O)OCC3(O)[C@@]12C)C(C)C` (stereo partly drawn), the “cell shape (Z-score)” value came to 0.522 ± 0.68. The figure for `CC[C@H]1OC(=O)[C@H](C)[C@@H](O[C@H]2C[C@@](C)(OC)[C@@H](O)[C@H](C)O2)[C@H](C)[C@@H](O[C@@H]2O[C@H](C)C[C@H](N(C)C)[C@H]2O)[C@](C)(O)C[C@@H](C)CN(C)[C@H](C)[C@@H](O)[C@]1(C)O` is -0.526.

`c1ccc(C2CN3CCSC3=N2)cc1` (stereo not drawn): the “cell shape (Z-score)” value came to 0.216. To `c1ccc2oc(C3=NCCN3)cc2c1` belongs 3.36; to `COc1cc2c(c(OC)c1OC)C[C@H]1COC(=O)[C@@H]1Cc1c-2cc(OC)c(OC)c1OC`, -9.6; to `Oc1ccc2ccccc2c1`, 0.791. `COc1c2occc2cc2ccc(=O)oc12`: the “cell shape (Z-score)” value stood at 2.93. The figure for `CC1CC(=O)c2c(ccc3c2C(=O)c2cccc(O)c2C3O)C1` (stereo not drawn) is 4.78. To `CCOc1ccc(Cc2cc([C@@H]3O[C@H](CO)[C@@H](O)[C@H](O)[C@H]3O)ccc2Cl)cc1` belongs -0.0179. The figure for `Clc1ccc(CCC(Cn2ccnc2)Sc2c(Cl)cccc2Cl)cc1` (stereo not drawn) is 1.78; for `CC(=O)OC(c1nc2ccccc2c(=O)n1C1CC2(OC1=O)c1ccccc1N1C(=O)C(C)(C)N(O)C12)C(C)C` (stereo not drawn) it is -0.202; for `O=C1N(c2ccccc2)c2ccccc2C1(Cc1ccncc1)Cc1ccncc1` it is 2.55.

Consider `COc1ccc(C(O)CNC(=O)/C=C/c2ccccc2)cc1` (stereo not drawn), for which the “cell shape (Z-score)” value was -1.2 ± 1.9. To `Cc1cc(I)ccc1Nc1c(C(=O)NOCC2CC2)cc(F)c(F)c1F` belongs -2.48; to `CNc1cc(OC)c(C(=O)NC2CCN(Cc3ccccc3)C2C)cc1Cl` (stereo not drawn), -1.61. To `O=C(OC1C=C(CO)C2C(OC3OC(CO)C(O)C(O)C3O)OC=CC12O)c1ccc(O)cc1` (stereo not drawn) belongs 4.76; to `C=C1CCC2(C(=O)OC3OC(CO)C(O)C(O)C3O)CCC3(C)C(=CCC4C5(C)CC(O)C(OC6OCC(O)C(O)C6OC6OC(CO)C(O)C(O)C6O)C(C)(CO)C5CCC43C)C2C1` (stereo not drawn), 0.275. The figure for `N#Cc1ccc(COC[C@H]2O[C@@H](n3c(NCc4ccc(Cl)c(Cl)c4)nc4c(N)ncnc43)[C@H](O)[C@@H]2O)cc1` is 9.18.

On to `Nc1ccc(S(=O)(=O)NC(=O)c2ccccc2)cc1`, for which the “cell shape (Z-score)” value amounted to 0.441.

Take `Cn1cnc2c1c(=O)[nH]c(=O)n2C`: the “cell shape (Z-score)” value worked out at 2.56. The figure for `CN1CCC(=C2c3ccccc3CC(=O)c3sccc32)CC1` is 4.57; for `C=CC1(C)C=C2CCC3C(C)(C)C(O[C@@H]4O[C@@H](CO)[C@H](O)[C@H]4O)CCC3(C)C2CC1O[C@@H]1O[C@H](C)[C@H](O)[C@H](O)[C@H]1O` (stereo partly drawn) it is 1.11; for `Cc1cc(C(C)(C)C)c(O)c(C(C)(C)C)c1` it is 2.71. To `COc1cc(O)c(C(=O)CCc2ccc(OC)c(OC)c2)c(OC)c1` belongs 4.56; to `C[C@H](NC(=O)/C(C#N)=C/c1ccc(O)c(O)c1)c1ccccc1`, -2.26. The figure for `COc1cc2occc2c(O[C@@H]2O[C@H](CO)[C@@H](O)[C@H](O)[C@H]2O)c1CCC(=O)O` is 1.86; for `CCCc1cc2c(N3CCN(C4=NCC(C)(C)S4)CC3)ncnc2s1` it is 1.96. Turning to `CC1(C)CC[C@]2(C(=O)O)CC[C@]3(C)C(=CCC4[C@@]5(C)CC[C@H](O)[C@@](C)(CO)C5CC[C@]43C)C2C1` (stereo partly drawn), the “cell shape (Z-score)” value was 1.23. The figure for `COc1cc(/C(C)=C/C(C)O)oc(=O)c1C` (stereo not drawn) is 1.97 ± 0.036; for `O=c1c2cc(O)c(O)cc2oc2cc(O)c(C3O[C@H](CO)[C@H](O)[C@@H](O)[C@H]3O)c(O)c12` (stereo partly drawn) it is 1.95.
